Consider 3 molecules from PMC8534522.

Sequences of proteins named here, by UniProt entry; tags and fusion partners are left off.
UniProt O75475: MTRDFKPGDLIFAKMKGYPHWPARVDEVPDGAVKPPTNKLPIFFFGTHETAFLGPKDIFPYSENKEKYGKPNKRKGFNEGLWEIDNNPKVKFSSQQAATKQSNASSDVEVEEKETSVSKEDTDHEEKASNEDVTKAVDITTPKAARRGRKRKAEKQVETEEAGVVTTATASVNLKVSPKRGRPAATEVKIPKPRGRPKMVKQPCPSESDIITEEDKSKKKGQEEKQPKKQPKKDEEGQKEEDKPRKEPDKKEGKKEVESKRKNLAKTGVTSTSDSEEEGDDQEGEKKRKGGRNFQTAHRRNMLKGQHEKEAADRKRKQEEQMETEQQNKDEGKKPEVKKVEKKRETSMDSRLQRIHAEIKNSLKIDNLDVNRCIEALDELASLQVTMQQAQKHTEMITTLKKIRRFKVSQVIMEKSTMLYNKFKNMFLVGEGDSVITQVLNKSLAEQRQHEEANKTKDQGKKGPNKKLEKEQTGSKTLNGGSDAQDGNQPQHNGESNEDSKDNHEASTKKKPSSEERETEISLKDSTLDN

No constants are given. Whether binding was seen depends on the method and setting. Binding seen in cells or lysates may run through a third protein. Some binding calls cover weakened binding; strength is not graded here.

The target in the assay is lens epithelium-derived growth factor p75 (LEDGF/p75) (human (endogenous in PC3-DR and DU145-DR)) (UniProt O75475). In words: co-IP; endogenous proteins from whole cell lysates (500 ug, non-denaturing lysis buffer) of PC3-DR and DU145-DR cells; LEDGF/p75 precipitated with human anti-LEDGF/p75 (DFS) autoantibody sera (1:100) and Protein A/G Sepharose, 12 h at 4 °C; partners detected by immunoblot; normal human serum as negative control. Background: In western blotting, separated proteins are transferred to a membrane and probed.

B1: PogZ (protein, UniProt Q7Z3K3 1-1410)
chain: MADTDLFMECEEEELEPWQKISDVIEDSVVEDYNSVDKTTTVSVSQQPVSAPVPIAAHASVAGHLSTSTTVSSSGAQNSDSTKKTLVTLIANNNAGNPLVQQGGQPLILTQNPAPGLGTMVTQPVLRPVQVMQNANHVTSSPVASQPIFITTQGFPVRNVRPVQNAMNQVGIVLNVQQGQTVRPITLVPAPGTQFVKPTVGVPQVFSQMTPVRPGSTMPVRPTTNTFTTVIPATLTIRSTVPQSQSQQTKSTPSTSTTPTATQPTSLGQLAVQSPGQSNQTTNPKLAPSFPSPPAVSIASFVTVKRPGVTGENSNEVAKLVNTLNTIPSLGQSPGPVVVSNNSSAHGSQRTSGPESSMKVTSSIPVFDLQDGGRKICPRCNAQFRVTEALRGHMCYCCPEMVEYQKKGKSLDSEPSVPSAAKPPSPEKTAPVASTPSSTPIPALSPPTKVPEPNENVGDAVQTKLIMLVDDFYYGRDGGKVAQLTNFPKVATSFRCPHCTKRLKNNIRFMNHMKHHVELDQQNGEVDGHTICQHCYRQFSTPFQLQCHLENVHSPYESTTKCKICEWAFESEPLFLQHMKDTHKPGEMPYVCQVCQYRSSLYSEVDVHFRMIHEDTRHLLCPYCLKVFKNGNAFQQHYMRHQKRNVYHCNKCRLQFLFAKDKIEHKLQHHKTFRKPKQLEGLKPGTKVTIRASRGQPRTVPVSSNDTPPSALQEAAPLTSSMDPLPVFLYPPVQRSIQKRAVRKMSVMGRQTCLECSFEIPDFPNHFPTYVHCSLCRYSTCCSRAYANHMINNHVPRKSPKYLALFKNSVSGIKLACTSCTFVTSVGDAMAKHLVFNPSHRSSSILPRGLTWIAHSRHGQTRDRVHDRNVKNMYPPPSFPTNKAATVKSAGATPAEPEELLTPLAPALPSPASTATPPPTPTHPQALALPPLATEGAECLNVDDQDEGSPVTQEPELASGGGGSGGVGKKEQLSVKKLRVVLFALCCNTEQAAEHFRNPQRRIRRWLRRFQASQGENLEGKYLSFEAEEKLAEWVLTQREQQLPVNEETLFQKATKIGRSLEGGFKISYEWAVRFMLRHHLTPHARRAVAHTLPKDVAENAGLFIDFVQRQIHNQDLPLSMIVAIDEISLFLDTEVLSSDDRKENALQTVGTGEPWCDVVLAILADGTVLPTLVFYRGQMDQPANMPDSILLEAKESGYSDDEIMELWSTRVWQKHTACQRSKGMLVMDCHRTHLSEEVLAMLSASSTLPAVVPAGCSSKIQPLDVCIKRTVKNFLHKKWKEQAREMADTACDSDVLLQLVLVWLGEVLGVIGDCPELVQRSFLVASVLPGPDGNINSPTRNADMQEELIASLEEQLKLSGEHSESSTPRPRSSPEETIEPESLHQLFEGESETESFYGFEEADLDLMEI
For the molecule B1, the binding result was “binds”.

B2: menin (protein, UniProt O00255 1-610)
chain: MGLKAAQKTLFPLRSIDDVVRLFAAELGREEPDLVLLSLVLGFVEHFLAVNRVIPTNVPELTFQPSPAPDPPGGLTYFPVADLSIIAALYARFTAQIRGAVDLSLYPREGGVSSRELVKKVSDVIWNSLSRSYFKDRAHIQSLFSFITGTKLDSSGVAFAVVGACQALGLRDVHLALSEDHAWVVFGPNGEQTAEVTWHGKGNEDRRGQTVNAGVAERSWLYLKGSYMRCDRKMEVAFMVCAINPSIDLHTDSLELLQLQQKLLWLLYDLGHLERYPMALGNLADLEELEPTPGRPDPLTLYHKGIASAKTYYRDEHIYPYMYLAGYHCRNRNVREALQAWADTATVIQDYNYCREDEEIYKEFFEVANDVIPNLLKEAASLLEAGEERPGEQSQGTQSQGSALQDPECFAHLLRFYDGICKWEEGSPTPVLHVGWATFLVQSLGRFEGQVRQKVRIVSREAEAAEAEEPWGEEAREGRRRGPRRESKPEEPPPPKKPALDKGLGTGQGAVSGPPRKPPGTVAGTARGPEGGSTAQVPAPTASPPPEGPVLTFQSEKMKGMKELLVATKINSSAIKLQLTAQSQVQMKKQKVSTPSDYTLSFLKRQRKGL
Take B2: the binding entry is “binds”.

B3: JPO2 (protein, UniProt Q96GN5 1-454)
chain: MELATRYQIPKEVADIFNAPSDDEEFVGFRDDVPMETLSSEESCDSFDSLESGKQQDVRFHSKYFTEELRRIFIEDTDSETEDFAGFTQSDLNGKTNPEVMVVESDLSDDGKASLVSEEEEDEEEDKATPRRSRSRRSSIGLRVAFQFPTKKLANKPDKNSSSEQLFSSARLQNEKKTILERKKDCRQVIQREDSTSESEDDSRDESQESSDALLKRTMNIKENKAMLAQLLAELNSMPDFFPVRTPTSASRKKTVRRAFSEGQITRRMNPTRSARPPEKFALENFTVSAAKFAEEFYSFRRRKTIGGKCREYRRRHRISSFRPVEDITEEDLENVAITVRDKIYDKVLGNTCHQCRQKTIDTKTVCRNQGCCGVRGQFCGPCLRNRYGEDVRSALLDPDWVCPPCRGICNCSYCRKRDGRCATGILIHLAKFYGYDNVKEYLESLQKELVEDN
With B3, the binding result is recorded as “binds”.
